Values from PubChem BioAssay AID686937 (Drosophila RNAi Screening Center, 2013).

- Purpose: 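Genes in the fly needed for secretion of protein constitutively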 (primary screen)
- Cell system: Drosophila S2 cells expressing secreted horseradish peroxidase
- Reagent: long dsRNA against Drosophila genes
- Duration: about 5.5 days (5 days dsRNA, then 12 h reporter induction)
- Challenge: reporter expression induced after 5 days of dsRNA, read 12 h later; inducer not stated
- Measured: 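Chemiluminescent measurement of peroxidase in the medium 12 h after reporter induction, following 5 days of dsRNA, given as a z-score per plate; higher means more secretion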
- Direction: z-score: higher = more reporter secreted into medium
In all, the deposit lists about 23,000 reagents; below is a random part of those with a known target gene and a result. 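Reduced-secretion tags in replicate 1 do not always agree with the z-scores; no criterion for assigning the tags was given.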 Reagents against one gene are numbered here. Names joined by + are all predicted targets of the reagent. Not given: the amount of reagent.

| gene knocked down | reagent no. | z-score, replicate 1 | z-score, replicate 2 | z-score, replicate 3 | z-score, replicate 4 | phenotype, replicate 1 |
| --- | --- | --- | --- | --- | --- | --- |
| CG42329 (GeneID 33312) | 1 | 0.36 | 0.3 | – | – | – |
| CG42329 (GeneID 33312) | 2 | 0.12 | -0.01 | – | – | – |
| hfp (GeneID 38173) | 1 | -0.58 | -0.61 | – | – | – |
| hfp (GeneID 38173) | 2 | 0.37 | 0.4 | – | – | – |
| hfp (GeneID 38173) | 3 | 0.22 | 0.07 | – | – | – |
| CG30283 (GeneID 37454) | 1 | 0.19 | 0.17 | – | – | – |
| lobo (GeneID 4379864) | 1 | 0.34 | 0.3 | – | – | – |
| lobo (GeneID 4379864) | 2 | 0.12 | 0.22 | – | – | – |
| PLCXD (GeneID 34623) | 1 | 0.09 | 0.36 | 0.36 | 0.37 | – |
| Panx (GeneID 37434) | 1 | -0.03 | 0.18 | – | – | – |
| Spn85F (GeneID 41221) | 1 | -1.05 | -0.63 | – | – | – |
| CG4995 (GeneID 34390) | 1 | 0.27 | 0.31 | – | – | – |
| Mst57Da (GeneID 47954) | 1 | 0.25 | 0.35 | – | – | – |
| kumpel (GeneID 43136) | 1 | 0.49 | 0.23 | – | – | – |
| kumpel (GeneID 43136) | 2 | 0.37 | 0.45 | – | – | – |
| kumpel (GeneID 43136) | 3 | 0.15 | 0.44 | – | – | – |
| kumpel (GeneID 43136) | 4 | 0.57 | 0.28 | – | – | – |
| kumpel (GeneID 43136) | 5 | 0.32 | 0.34 | – | – | – |
| kumpel (GeneID 43136) | 6 | 0.32 | 0.39 | – | – | – |
| sordd2 + sordd1 | 1 | 0.27 | 0.66 | – | – | – |
| Oli (GeneID 35066) | 1 | 0.29 | 0.22 | – | – | – |
| CG32462 + asRNA:CR43426 | 1 | 0.25 | 0.36 | – | – | – |
| PGRP-SA (GeneID 32099) | 1 | 0.23 | 0.11 | – | – | – |
| CG14451 (GeneID 40488) | 1 | 0.44 | 0.4 | – | – | – |
| wcy (GeneID 32690) | 1 | 0.5 | 0.16 | – | – | – |
| shams (GeneID 43008) | 1 | 0.09 | 0.2 | – | – | – |
| CG3222 (GeneID 39114) | 1 | 0.23 | 0.24 | – | – | – |
| FoxK (GeneID 39252) | 1 | 0.01 | 0.04 | – | – | – |
| CG33467 (GeneID 2768834) | 1 | 0.57 | 0.19 | – | – | – |
| CG33467 (GeneID 2768834) | 2 | -0.53 | -0.05 | – | – | – |
| Prx6c (GeneID 36098) | 1 | 0.11 | 0.16 | – | – | – |
| rno (GeneID 38027) | 1 | 0.59 | 0.61 | – | – | – |
| CG13398 (GeneID 34169) | 1 | 0.42 | 0.11 | – | – | – |
| ICA69 (GeneID 40331) | 1 | 0.29 | 0.35 | – | – | – |
| CG9861 (GeneID 37692) | 1 | 0.3 | 0.55 | – | – | – |
| esg (GeneID 34903) | 1 | -0.37 | 0.11 | – | – | – |
| CG30031 + deltaTry + CG30025 + 1 more | 1 | 0.29 | 0.2 | – | – | – |
| CG16989 (GeneID 31026) | 1 | 0.15 | 0.08 | – | – | – |
| CG6216 (GeneID 39257) | 1 | 0.08 | 0.31 | – | – | – |
| Tsp5D (GeneID 31540) | 1 | 0.27 | 0.61 | – | – | – |
| CG13280 (GeneID 35015) | 1 | 0.26 | 0.18 | – | – | – |
| CG8617 (GeneID 36594) | 1 | 0.11 | 0.26 | – | – | – |
| DNAlig1 (GeneID 37791) | 1 | -0.21 | -0.49 | – | – | – |
| CG9445 (GeneID 50147) | 1 | 0.45 | 0.41 | – | – | – |
| CR31958 (GeneID 33603) | 1 | -0.01 | 0.17 | – | – | – |
| CR31958 (GeneID 33603) | 2 | 0.25 | -0.08 | – | – | – |
| ric8b + ric8a | 1 | 0.28 | 0.63 | – | – | – |
| Cyp6a13 (GeneID 35837) | 1 | 0.61 | 0.47 | – | – | – |
| CG5386 (GeneID 42613) | 1 | -0.51 | -0.28 | – | – | – |
| CG42521 (GeneID 8674012) | 1 | 0.69 | 0.55 | – | – | – |
| POSH (GeneID 36990) | 1 | 0.51 | 0.34 | – | – | – |
| Gba1b (GeneID 318721) | 1 | 1.31 | -0.68 | – | – | – |
| CG8750 (GeneID 50285) | 1 | 0.08 | 0.33 | – | – | – |
| fry (GeneID 39122) | 1 | -0.05 | 0.35 | – | – | – |
| fry (GeneID 39122) | 2 | 0.29 | 0.37 | – | – | – |
| fry (GeneID 39122) | 3 | 0.37 | 0.44 | – | – | – |
| fry (GeneID 39122) | 4 | 0.67 | 0.27 | – | – | – |
| osi (GeneID 50459) | 1 | 0.41 | 0.32 | 0.17 | 0.35 | – |
| CG12224 (GeneID 41453) | 1 | -0.41 | 0.21 | – | – | – |
| CG34034 (GeneID 3885584) | 1 | 0.41 | 0.21 | – | – | – |
| JMJD6 (GeneID 42616) | 1 | -0.04 | 0.18 | – | – | – |
| CG13901 (GeneID 38095) | 1 | 0.32 | 0.26 | – | – | – |
| ssp (GeneID 39375) | 1 | -0.14 | -0.26 | – | – | – |
| Syt14 (GeneID 40544) | 1 | 0.33 | 0.24 | – | – | – |
| CG14219 (GeneID 32951) | 1 | 0.61 | 0.16 | – | – | – |
| Acbp2 (GeneID 38784) | 1 | 0.35 | 0.53 | – | – | – |
| nSMase (GeneID 38396) | 1 | 0.26 | 0.32 | – | – | – |
| CG9107 (GeneID 33843) | 1 | 0.18 | 0.17 | – | – | – |
| Klp3A (GeneID 31240) | 1 | 0.29 | 0.36 | – | – | – |
| Klp3A (GeneID 31240) | 2 | -0.59 | -0.4 | – | – | – |
| CG34194 (GeneID 5740534) | 1 | -3.24 | -1.19 | – | – | reduced secretion |
| CngB (GeneID 37479) | 1 | 0.46 | 0.41 | – | – | – |
| CG3014 (GeneID 40922) | 1 | 0.35 | 0.64 | – | – | – |
| Usp12-46 (GeneID 42702) | 1 | 0.37 | 0.21 | – | – | – |
| CG8319 (GeneID 41165) | 1 | 0.22 | 0.03 | – | – | – |
| Pss (GeneID 40281) | 1 | -0.02 | -0.95 | – | – | – |
| dpr7 (GeneID 2768865) | 1 | 0.19 | -0.53 | – | – | – |
| CG14218 (GeneID 32949) | 1 | 0.57 | 0.15 | 0.19 | -0.22 | – |
| retn (GeneID 45976) | 1 | 0.48 | 0.5 | – | – | – |
| CG31406 (GeneID 318715) | 1 | 0.4 | 0.4 | – | – | – |
| Obp56f (GeneID 246668) | 1 | -0.2 | -0.15 | – | – | – |
| Pop2 (GeneID 39366) | 1 | -1.79 | -1.01 | – | – | reduced secretion |
